The source of these data is article PMC11798735.

Protein sequences, listed by entry. Tags and fused reporters are not part of them. Lines headed by an entry give the natural chain unless they say otherwise; changes in a name come on top.
UniProt P08151: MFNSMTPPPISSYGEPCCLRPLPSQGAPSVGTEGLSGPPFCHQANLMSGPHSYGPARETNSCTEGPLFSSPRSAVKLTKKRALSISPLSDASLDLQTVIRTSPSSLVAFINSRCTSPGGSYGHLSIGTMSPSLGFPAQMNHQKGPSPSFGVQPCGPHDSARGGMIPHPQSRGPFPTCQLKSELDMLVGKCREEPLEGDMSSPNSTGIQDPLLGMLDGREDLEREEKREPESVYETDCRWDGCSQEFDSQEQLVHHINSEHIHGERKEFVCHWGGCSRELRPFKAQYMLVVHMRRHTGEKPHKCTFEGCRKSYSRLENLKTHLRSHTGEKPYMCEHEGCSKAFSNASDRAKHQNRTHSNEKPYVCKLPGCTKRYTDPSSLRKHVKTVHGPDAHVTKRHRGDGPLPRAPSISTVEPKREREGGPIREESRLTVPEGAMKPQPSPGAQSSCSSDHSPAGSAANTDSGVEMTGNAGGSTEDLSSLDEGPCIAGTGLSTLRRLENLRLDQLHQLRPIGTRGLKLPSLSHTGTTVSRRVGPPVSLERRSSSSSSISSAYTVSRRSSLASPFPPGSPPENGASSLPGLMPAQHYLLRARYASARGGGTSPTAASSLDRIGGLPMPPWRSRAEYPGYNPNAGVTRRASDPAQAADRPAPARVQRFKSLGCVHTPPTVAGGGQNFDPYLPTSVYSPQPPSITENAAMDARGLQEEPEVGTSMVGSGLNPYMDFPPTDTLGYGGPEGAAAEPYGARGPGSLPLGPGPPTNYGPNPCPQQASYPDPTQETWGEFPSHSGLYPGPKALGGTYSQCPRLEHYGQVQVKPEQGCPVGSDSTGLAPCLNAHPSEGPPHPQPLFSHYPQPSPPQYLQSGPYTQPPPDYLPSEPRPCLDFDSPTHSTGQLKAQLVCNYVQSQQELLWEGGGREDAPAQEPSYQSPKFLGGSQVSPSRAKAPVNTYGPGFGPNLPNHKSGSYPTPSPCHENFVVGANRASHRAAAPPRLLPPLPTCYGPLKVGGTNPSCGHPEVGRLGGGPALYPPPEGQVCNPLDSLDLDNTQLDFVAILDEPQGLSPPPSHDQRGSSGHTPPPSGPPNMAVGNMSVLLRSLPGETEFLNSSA
UniProt P12644: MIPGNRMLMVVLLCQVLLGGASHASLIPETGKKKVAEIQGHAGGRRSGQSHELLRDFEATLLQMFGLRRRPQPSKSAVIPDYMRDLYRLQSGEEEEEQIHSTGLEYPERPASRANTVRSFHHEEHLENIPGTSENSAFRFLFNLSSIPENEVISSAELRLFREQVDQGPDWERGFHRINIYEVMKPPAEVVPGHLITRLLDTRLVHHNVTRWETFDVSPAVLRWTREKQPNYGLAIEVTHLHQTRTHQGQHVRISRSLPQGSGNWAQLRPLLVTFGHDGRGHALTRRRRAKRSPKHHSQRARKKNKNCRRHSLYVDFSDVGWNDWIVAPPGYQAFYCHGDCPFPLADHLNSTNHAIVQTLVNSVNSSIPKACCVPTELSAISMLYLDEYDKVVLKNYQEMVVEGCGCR
UniProt P12643: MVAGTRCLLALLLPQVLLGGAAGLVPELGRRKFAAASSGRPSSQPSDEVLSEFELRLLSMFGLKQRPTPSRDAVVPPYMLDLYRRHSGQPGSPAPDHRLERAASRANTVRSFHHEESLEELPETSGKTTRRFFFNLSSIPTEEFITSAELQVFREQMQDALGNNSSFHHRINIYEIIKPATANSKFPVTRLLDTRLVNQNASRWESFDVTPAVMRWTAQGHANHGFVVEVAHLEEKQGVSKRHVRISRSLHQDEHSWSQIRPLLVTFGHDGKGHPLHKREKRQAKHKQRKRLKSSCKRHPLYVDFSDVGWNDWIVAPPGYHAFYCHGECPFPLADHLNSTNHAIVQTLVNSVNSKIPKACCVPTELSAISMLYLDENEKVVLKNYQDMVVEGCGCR

The assay deals with GLI Family Zinc Finger 1 (GLI1) (human (endogenous in primary PLL or OPLL cells; the cells of the co-IP are not named)) (UniProt P08151). Description: co-IP; Immunoprecipitation Kit (Beyotime); cell lysate in CoIP lysis buffer with protease inhibitor cocktail, primary antibodies overnight at 4 °C, Protein A + G magnetic beads 3 h, three washes, Western blot. In general terms: In western blotting, separated proteins are transferred to a membrane and probed.

No constants are given. Whether binding was seen depends on the method and setting. In cells and extracts the contact can be indirect. Binding can be weak; no strength is given.

As for BMP4 (from UniProt P12644), the binding entry was “no binding”.
As to BMP2 (from UniProt P12643), the binding entry is “binds”.
